Reference: publication PMC5808637
Results are given in words; binding and its absence hold for the method and conditions named. Binding seen in cells or lysates may run through a third protein. Some results given as binding are weak or reduced against the parent protein; the word gives no strength. Sequences can lack the tags named with a protein.

Protein sequences, listed by entry. Tags and fused reporters are not part of them. Lines headed by an entry give the natural chain unless they say otherwise; changes in a name come on top.
UniProt P36405: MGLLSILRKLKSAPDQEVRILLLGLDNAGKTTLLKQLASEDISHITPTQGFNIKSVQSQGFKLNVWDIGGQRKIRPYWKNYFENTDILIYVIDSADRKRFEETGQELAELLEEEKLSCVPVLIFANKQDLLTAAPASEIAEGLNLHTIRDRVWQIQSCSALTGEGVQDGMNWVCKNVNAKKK

How the values were obtained:
[1] = target: T1, full-length human myc-Kif17 (human) (UniProt Q9P2E2); test: co-IP; reciprocal co-IPs testing whether Kif17 forms a complex with both Arl3-GDP and RP2 (competition); Fig. S3
T1 sequence: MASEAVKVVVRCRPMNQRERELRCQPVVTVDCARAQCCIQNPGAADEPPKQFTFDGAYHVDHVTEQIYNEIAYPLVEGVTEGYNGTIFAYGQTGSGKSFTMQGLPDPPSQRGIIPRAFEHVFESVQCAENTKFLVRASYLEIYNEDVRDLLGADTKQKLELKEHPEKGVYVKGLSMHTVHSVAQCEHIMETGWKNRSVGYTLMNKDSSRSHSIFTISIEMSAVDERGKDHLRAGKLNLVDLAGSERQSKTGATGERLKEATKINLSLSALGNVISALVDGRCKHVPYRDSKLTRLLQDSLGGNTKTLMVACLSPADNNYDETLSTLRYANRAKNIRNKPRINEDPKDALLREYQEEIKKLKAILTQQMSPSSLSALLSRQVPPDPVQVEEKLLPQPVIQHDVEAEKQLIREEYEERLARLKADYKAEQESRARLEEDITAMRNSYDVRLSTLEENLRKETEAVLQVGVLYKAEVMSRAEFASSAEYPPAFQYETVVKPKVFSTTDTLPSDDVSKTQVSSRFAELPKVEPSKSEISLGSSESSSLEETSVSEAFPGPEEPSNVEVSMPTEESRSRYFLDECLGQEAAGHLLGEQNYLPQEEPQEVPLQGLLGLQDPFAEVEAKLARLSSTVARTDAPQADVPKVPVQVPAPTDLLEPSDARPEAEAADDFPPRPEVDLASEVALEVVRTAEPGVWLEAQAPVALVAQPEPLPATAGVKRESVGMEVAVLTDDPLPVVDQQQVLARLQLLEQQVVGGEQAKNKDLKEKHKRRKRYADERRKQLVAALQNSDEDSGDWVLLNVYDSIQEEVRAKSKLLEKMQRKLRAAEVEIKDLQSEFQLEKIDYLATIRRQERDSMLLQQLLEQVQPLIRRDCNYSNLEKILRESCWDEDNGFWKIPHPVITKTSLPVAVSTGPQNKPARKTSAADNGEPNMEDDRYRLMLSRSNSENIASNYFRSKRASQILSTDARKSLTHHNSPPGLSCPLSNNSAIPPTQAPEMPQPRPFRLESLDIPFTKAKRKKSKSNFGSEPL

[2] = target: T1, full-length human myc-Kif17 (human); test: co-IP; reciprocal co-IPs from lysates of CHO cells co-transfected with two constructs; lysis buffer 25 mM Tris pH 7.5, 150 mM NaCl, 0.25% deoxycholate, 1% NP-40, 1 mM EDTA; Dynabeads Protein G with primary antibodies or GFP-Trap_M beads, 1 h at room temperature; Western blot

Substance: Arl3-T31N-vsv (from UniProt P36405 1-182)
- binding [1]: binds
- binding [2]: binds
